Results reported in US5089520A, “Method of inhibiting virus” (priority 1990, dated 1992).
The name of at least one read-out is uncertain.

Tested on: HIV
Experiment: In vitro HIV replication / cytopathic effect assay, HIV-infected T-cells scored 0 to 4+ (Example 13, Table I)
Type: cell-based
Conditions: 3 weeks, HIV-1 and HIV-2
Protocol: After a suitable period of incubation, the cultures are scored for the presence of so-called syncytial cells (giant cells). Typical examples of such a test for the evaluation of inhibitors of HIV have been disclosed by Fung et al., Bio/Technology 5, 940-946 (1987); Tyms et al., Lancet, Oct. 31, 1987, pp. 1025-1026; Gruters et al., Nature 330, 74-77 (1987); and Walker et al., Proc Natl. Acad. Sci. USA 84, 8120-8124 (1987).
In the present case, a human leukemic T-cell line was used which is described by Karpas, Leuk. Res. 1, 35-49 (1977). These cells were seeded into microtiter wells at a concentration of 5×10^3 cells per 0.2 ml of culture medium in each well. RPMI-1640 supplemented with 10% fetal calf serum was used as the culture medium. Each of the test compounds was added to either 4 or 6 wells of the microtiter plate. Two or three of the wells were infected with about 10^3 HIV-1 particles per well and two or three other wells were similarly infected with HV-2 particles. During the following 3 weeks, with a twice weekly change of medium containing the corresponding test compounds, the infected cells were monitored for the appearance of syncytial formations (giant cells) and eventual cytopathic effect (CPE). The non-infected cells were monitored for the possible cytotoxic effect of the test compounds. Likewise, the rate of growth was estimated in relation to growth of the control cells. The cultures were scored on a scale from 0 to 4+ by microscopic examination on the following basis:
1+=about 1/4 of cells alive
2+=about 1/2 of cells alive
3+=about 3/4 of cells alive
4+=all cells appear alive

[1] = compound concentration 0.1 mg/ml
[2] = compound concentration 0.13 mg/ml

| SMILES | T-cells HIV-infected (score) [1] | other results |
| --- | --- | --- |
| CN1C[C@H](O)[C@H](O)[C@H]1CO [Compound 6] | 1+ (about 1/4 of cells alive) | – |
| OC[C@H]1NC[C@H](O)[C@@H]1O [Compound 4, 1,4-Dideoxy-1,4-imino-D-ribitol] | – | T-cells HIV-infected (score) [2]: 2+ (about 1/2 of cells alive) |
| CN1C[C@H](O)[C@@H](O)[C@@H]1CO [Compound 5] | 1+ (about 1/4 of cells alive) | – |
| CN1[C@H](CO)[C@@H](O)[C@H](O)[C@H]1CO [Compound 1, N-Methyl derivative of dihydroxymethyldihydroxypyrrolidine] | 1+ (about 1/4 of cells alive) | – |
| OC[C@@H]1NC[C@@H](O)[C@H]1O [Compound 3, 1,4-Dideoxy-1,4-imino-L-ribitol] | – | T-cells HIV-infected (score) [2]: 1+ (about 1/4 of cells alive) |
| OC[C@H]1[C@H](O)[C@H](O)CN1Cc1ccccc1 [Compound 7, 1,4-dideoxy-1,4-benzylimino-L-ribitol] | 1+ (about 1/4 of cells alive) | – |
| C[C@H]1[C@@H](O)[C@@H](O)[C@H](O)CN1C [Compound 11, 1,5-Dideoxy-1,5-imino-[N-methyl]-L-fucitol] | 1+ (about 1/4 of cells alive) | – |
| OC[C@@H](O)[C@@H]1NC[C@@H](O)[C@H]1O [Compound 8, 1,4-Dideoxy-1,4-imino-D-talitol] | – | T-cells HIV-infected (score) (compound concentration 0.16 mg/ml): 1+ (about 1/4 of cells alive) |
| CN1C[C@@H](O)[C@@H](O)[C@H](O)[C@H]1CO [Compound 9, N-Methyl derivative of deoxymannojirimycin] | – | T-cells HIV-infected (score) (compound concentration 0.3 mg/ml): 1+ (about 1/4 of cells alive) |
| C[C@@H]1NC(=O)[C@@H](O)[C@H](O)[C@@H]1O [Compound 10, 1,5-dideoxy-1,5-imino-L-fuconolactam] | 1+ (about 1/4 of cells alive) | – |
| COC(=O)CCCCCN1C[C@@H](O)[C@H](O)[C@H](O)[C@@H]1C [Compound 12, 1,5-Dideoxy-1,5-imino-[N-ω-methyl caproate]-L-fucitol] | – | T-cells HIV-infected (score) (compound concentration 0.03 mg/ml): 1+ (about 1/4 of cells alive) |
